Test results: publication PMC6316800
These are yes or no findings as the source states them, for the method shown. In cells and extracts the contact can be indirect. Here binding means that the protein was enriched with, or labelled near, the bait; the list need not be complete.

By UniProt entry, the sequences of proteins in these tests, tags left out. Residues count along the entry.
UniProt P60903: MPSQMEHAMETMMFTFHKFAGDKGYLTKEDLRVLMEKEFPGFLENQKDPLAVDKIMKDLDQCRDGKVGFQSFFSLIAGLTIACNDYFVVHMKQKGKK
UniProt P02545, residues 1-646: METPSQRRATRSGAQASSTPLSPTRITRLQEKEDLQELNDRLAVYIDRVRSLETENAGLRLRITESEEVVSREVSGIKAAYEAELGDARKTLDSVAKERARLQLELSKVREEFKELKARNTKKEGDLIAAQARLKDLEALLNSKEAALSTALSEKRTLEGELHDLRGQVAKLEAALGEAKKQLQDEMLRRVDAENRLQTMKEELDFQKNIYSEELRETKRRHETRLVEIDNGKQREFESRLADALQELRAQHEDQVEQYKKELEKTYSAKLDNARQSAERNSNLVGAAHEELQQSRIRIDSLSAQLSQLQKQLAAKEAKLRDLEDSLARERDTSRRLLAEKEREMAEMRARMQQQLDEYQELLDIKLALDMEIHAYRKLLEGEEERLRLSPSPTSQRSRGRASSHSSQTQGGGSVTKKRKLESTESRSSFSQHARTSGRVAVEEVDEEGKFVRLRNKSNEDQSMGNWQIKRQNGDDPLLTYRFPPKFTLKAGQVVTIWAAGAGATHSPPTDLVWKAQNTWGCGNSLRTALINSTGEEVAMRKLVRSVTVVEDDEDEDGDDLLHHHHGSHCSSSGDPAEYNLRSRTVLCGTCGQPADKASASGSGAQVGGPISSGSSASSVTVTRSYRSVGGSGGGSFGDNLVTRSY
UniProt Q9NWH9: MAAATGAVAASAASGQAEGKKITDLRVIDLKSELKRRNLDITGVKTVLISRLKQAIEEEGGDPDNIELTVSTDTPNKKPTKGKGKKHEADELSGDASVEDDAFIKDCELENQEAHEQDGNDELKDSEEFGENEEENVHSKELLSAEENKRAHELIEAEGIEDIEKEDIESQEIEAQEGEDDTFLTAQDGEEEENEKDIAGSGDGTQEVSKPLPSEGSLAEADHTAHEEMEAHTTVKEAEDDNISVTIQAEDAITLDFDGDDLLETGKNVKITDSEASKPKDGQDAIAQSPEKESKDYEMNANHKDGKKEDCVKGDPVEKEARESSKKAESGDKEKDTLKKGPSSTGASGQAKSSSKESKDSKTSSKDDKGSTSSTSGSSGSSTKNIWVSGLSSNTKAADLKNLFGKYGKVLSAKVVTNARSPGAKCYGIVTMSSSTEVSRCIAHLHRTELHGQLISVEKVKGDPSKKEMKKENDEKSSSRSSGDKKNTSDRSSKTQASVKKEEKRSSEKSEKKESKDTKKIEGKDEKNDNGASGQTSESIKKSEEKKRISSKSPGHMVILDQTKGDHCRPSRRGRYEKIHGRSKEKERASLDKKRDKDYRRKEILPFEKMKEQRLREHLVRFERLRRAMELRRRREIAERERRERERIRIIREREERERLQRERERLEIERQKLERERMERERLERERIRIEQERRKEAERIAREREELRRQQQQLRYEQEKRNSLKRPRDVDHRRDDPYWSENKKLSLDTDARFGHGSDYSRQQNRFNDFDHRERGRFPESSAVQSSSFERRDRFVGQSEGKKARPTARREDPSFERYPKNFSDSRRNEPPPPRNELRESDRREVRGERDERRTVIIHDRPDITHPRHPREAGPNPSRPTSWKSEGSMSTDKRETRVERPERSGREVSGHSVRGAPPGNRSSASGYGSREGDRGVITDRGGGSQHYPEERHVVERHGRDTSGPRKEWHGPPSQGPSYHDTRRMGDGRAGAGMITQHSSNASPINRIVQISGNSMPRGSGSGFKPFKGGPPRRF
UniProt P07305: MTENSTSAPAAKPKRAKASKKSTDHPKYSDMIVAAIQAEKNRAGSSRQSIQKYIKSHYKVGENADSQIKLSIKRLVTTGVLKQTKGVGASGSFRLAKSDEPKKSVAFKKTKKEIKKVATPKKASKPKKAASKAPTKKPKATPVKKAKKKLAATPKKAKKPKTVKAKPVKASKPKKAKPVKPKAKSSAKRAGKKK
UniProt O95758: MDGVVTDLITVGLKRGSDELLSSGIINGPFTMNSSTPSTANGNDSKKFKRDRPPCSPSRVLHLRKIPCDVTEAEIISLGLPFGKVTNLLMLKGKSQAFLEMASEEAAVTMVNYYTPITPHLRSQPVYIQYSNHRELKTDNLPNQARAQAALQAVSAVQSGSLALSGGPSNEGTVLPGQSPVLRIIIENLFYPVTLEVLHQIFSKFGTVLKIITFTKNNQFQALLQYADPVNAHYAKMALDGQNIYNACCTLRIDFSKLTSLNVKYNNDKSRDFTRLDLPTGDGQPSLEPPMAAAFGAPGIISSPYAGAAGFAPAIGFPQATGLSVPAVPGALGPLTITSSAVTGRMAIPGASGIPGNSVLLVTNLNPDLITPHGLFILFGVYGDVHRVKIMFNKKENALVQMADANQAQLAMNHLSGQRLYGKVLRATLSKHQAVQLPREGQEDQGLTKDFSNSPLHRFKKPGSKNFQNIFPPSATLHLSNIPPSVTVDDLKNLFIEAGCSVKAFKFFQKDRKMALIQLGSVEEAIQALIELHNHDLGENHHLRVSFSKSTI
UniProt Q8TDD1: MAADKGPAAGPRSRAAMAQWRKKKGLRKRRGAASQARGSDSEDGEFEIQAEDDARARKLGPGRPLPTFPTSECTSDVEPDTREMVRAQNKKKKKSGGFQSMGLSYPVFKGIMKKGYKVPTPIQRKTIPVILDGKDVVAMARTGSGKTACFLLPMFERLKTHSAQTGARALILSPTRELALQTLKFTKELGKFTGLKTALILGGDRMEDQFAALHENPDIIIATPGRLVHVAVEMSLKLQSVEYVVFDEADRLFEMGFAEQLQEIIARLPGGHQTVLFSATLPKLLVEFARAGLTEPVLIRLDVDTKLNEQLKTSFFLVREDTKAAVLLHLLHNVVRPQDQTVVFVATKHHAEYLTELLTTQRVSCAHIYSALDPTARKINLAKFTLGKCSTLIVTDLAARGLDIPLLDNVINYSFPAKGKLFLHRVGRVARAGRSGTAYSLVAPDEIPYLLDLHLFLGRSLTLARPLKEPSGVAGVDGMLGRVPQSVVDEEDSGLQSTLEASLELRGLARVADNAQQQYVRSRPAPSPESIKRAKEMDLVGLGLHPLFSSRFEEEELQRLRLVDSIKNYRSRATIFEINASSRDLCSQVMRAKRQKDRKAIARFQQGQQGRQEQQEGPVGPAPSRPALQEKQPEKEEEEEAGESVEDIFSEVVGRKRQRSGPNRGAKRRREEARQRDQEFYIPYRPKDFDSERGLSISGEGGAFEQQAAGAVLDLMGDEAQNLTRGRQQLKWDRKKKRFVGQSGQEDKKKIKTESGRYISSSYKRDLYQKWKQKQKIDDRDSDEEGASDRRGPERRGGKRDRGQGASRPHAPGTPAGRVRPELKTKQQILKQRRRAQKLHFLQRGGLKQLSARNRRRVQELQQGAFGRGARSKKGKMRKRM
UniProt Q7Z7K6: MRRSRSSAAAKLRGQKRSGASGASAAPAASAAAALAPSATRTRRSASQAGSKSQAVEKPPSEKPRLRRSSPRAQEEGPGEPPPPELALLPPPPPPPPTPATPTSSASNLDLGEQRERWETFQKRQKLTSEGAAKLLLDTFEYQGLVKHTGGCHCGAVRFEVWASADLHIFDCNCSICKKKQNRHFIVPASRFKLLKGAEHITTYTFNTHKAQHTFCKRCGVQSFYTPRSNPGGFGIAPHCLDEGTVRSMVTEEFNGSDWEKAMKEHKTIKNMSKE
UniProt P54652: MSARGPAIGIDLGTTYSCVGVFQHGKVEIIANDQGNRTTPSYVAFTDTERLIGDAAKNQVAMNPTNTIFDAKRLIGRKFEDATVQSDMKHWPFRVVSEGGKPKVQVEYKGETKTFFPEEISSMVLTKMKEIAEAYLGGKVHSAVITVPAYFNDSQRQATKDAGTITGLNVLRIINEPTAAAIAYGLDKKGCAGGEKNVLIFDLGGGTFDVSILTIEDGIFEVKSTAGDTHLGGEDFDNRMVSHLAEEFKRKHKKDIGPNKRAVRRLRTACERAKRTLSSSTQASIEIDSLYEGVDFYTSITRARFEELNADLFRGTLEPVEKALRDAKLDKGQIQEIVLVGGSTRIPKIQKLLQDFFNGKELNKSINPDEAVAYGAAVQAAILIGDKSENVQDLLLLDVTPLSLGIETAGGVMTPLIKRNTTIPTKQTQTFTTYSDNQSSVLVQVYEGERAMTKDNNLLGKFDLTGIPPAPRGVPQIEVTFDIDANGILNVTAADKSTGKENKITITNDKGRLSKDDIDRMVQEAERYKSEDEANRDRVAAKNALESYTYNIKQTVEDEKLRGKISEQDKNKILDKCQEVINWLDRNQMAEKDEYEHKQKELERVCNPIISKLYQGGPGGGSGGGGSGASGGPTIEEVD
UniProt P16401: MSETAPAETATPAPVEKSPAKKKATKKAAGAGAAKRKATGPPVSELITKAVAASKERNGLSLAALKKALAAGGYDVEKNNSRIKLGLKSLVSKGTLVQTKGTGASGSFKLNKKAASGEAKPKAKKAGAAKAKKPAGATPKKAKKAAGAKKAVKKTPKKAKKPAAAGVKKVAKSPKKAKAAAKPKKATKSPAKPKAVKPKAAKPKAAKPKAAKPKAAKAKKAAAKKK
UniProt Q14137: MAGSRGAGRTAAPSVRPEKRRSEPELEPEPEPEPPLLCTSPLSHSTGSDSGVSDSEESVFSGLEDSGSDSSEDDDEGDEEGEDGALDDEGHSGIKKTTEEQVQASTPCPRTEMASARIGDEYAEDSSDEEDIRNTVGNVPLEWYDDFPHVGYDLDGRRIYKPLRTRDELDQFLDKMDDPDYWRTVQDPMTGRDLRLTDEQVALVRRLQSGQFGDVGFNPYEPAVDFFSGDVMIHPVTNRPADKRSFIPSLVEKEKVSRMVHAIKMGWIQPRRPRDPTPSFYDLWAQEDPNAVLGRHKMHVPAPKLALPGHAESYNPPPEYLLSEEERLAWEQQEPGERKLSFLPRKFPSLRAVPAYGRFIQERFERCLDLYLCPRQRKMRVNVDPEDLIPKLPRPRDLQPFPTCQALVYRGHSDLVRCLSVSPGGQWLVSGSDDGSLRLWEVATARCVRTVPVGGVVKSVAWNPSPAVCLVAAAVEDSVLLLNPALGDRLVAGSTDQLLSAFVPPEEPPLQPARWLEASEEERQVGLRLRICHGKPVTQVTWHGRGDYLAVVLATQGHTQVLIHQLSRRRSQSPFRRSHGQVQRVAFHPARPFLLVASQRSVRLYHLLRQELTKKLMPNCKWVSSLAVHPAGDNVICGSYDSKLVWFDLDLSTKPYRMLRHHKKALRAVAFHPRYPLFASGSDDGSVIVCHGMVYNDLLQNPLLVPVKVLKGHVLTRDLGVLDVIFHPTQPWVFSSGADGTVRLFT
UniProt Q14692: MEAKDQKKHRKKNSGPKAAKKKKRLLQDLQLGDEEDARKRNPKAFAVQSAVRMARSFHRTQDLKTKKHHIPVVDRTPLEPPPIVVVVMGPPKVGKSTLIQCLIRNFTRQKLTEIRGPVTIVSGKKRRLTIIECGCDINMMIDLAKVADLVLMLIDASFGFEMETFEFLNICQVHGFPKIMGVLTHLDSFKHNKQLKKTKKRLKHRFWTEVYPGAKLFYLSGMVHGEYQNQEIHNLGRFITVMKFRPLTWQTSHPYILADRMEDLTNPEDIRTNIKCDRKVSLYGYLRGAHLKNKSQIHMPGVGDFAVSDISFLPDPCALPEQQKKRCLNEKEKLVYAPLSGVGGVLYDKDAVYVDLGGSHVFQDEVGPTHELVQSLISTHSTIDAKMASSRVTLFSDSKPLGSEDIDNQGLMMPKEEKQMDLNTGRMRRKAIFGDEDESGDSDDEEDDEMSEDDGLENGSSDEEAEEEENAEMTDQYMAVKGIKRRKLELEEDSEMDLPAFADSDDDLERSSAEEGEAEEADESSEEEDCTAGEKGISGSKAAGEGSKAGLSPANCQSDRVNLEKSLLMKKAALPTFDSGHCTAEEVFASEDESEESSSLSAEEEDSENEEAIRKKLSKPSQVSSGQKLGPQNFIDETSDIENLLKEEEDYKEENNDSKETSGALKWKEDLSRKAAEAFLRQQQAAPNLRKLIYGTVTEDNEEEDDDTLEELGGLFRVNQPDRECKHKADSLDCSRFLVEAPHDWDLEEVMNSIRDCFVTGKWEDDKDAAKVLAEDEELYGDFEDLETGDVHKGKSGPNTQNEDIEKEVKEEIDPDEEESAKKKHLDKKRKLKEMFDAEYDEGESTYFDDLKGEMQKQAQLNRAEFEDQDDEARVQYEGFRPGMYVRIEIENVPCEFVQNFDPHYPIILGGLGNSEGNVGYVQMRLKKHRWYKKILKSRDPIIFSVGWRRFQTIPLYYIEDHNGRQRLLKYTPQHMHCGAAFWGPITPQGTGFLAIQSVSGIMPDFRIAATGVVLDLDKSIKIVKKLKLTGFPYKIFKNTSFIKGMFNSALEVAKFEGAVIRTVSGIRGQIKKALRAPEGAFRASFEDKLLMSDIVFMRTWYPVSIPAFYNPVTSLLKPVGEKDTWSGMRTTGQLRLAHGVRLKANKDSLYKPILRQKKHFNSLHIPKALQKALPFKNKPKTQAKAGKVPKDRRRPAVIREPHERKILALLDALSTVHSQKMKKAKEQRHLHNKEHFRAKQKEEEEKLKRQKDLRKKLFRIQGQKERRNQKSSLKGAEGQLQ

Target: Influenza A virus non-structural protein 1 (NS1), strain A/Puerto Rico/8/1934(H1N1) (Influenza A virus A/Puerto Rico/8/1934(H1N1)) (UniProt P03496)
Assay: affinity purification with mass spectrometry

For “Protein S100-A10 (from UniProt P60903 1-97)”, the binding was “binds”.
“Poly(rC)-binding protein 1 (from UniProt Q15365 1-356)” was tested, and the binding was “binds”.
In the case of “Insulin-like growth factor 2 mRNA-binding protein 3 (from UniProt O00425 1-579)”, the binding was “binds”.
“HEAT repeat-containing protein 1 (from UniProt Q9H583 1-2144)” was tested, and the binding was “binds”.
With “PR8 viral matrix protein 1 (M1) (from UniProt P03485 1-252)” the binding was “binds”.
With “ELAV-like protein 1 (from UniProt Q15717 1-326)” the binding was “binds”.
With “Heat shock 70 kDa protein 1A/1B (from UniProt P0DMV8 1-641)” the binding was “binds”.
For “Probable ATP-dependent RNA helicase DDX5 (from UniProt P17844 1-614)”, the binding was “binds”.
“Protein RRP5 homolog (from UniProt Q14690 1-1871)” was tested, and the binding was “binds”.
For “ATP-dependent RNA helicase DDX3X (from UniProt O00571 1-662)”, the binding was “binds”.
With “Putative heat shock protein HSP 90-beta 2 (from UniProt Q58FF8 1-381)” the binding was “binds”.
“Nucleolar protein 56 (from UniProt O00567 1-594)” was tested, and the binding was “binds”.
“Probable ATP-dependent RNA helicase DDX10 (from UniProt Q13206 1-875)” was tested, and the binding was “binds”.
With “Core histone macro-H2A.1 (from UniProt O75367 1-369)” the binding was “binds”.
With “SWI/SNF-related matrix-associated actin-dependent regulator of chromatin subfamily A member 5 (from UniProt O60264 1-1052)” the binding was “binds”.
In the case of “Isoform D of Protein SON (from UniProt P18583-5 1-2459)”, the binding was “binds”.
For “RNA-binding protein Raly (from UniProt Q9UKM9 1-306)”, the binding was “binds”.
In the case of “DNA-dependent protein kinase catalytic subunit (from UniProt P78527 1-4128)”, the binding was “binds”.
With Histone H1x (from UniProt Q92522 1-213) the binding was “binds”.
Lamin-A/C (from UniProt P02545 1-646) was tested, and the binding was “binds”.
“Nuclear mitotic apparatus protein 1 (from UniProt Q14980 1-2115)” was tested, and the binding was “binds”.
With “Heterochromatin protein 1-binding protein 3 (from UniProt Q5SSJ5 1-553)” the binding was “binds”.
With “Zinc finger CCCH-type antiviral protein 1 (from UniProt Q7Z2W4 1-902)” the binding was “binds”.
With “Polypyrimidine tract-binding protein 1 (from UniProt P26599 1-557)” the binding was “binds”.
“SAFB-like transcription modulator (from UniProt Q9NWH9 1-1034)” was tested, and the binding was “binds”.
With “Heterogeneous nuclear ribonucleoprotein G (from UniProt P38159 1-391)” the binding was “binds”.
For “Serine/threonine-protein kinase PRP4 homolog (from UniProt Q13523 1-1007)”, the binding was “binds”.
With “Histone H1.0 (from UniProt P07305 1-194)” the binding was “binds”.
“U5 small nuclear ribonucleoprotein 200 kDa helicase (from UniProt O75643 1-2136)” was tested, and the binding was “binds”.
“RNA-binding protein FUS (from UniProt P35637 1-526)” was tested, and the binding was “binds”.
With “Far upstream element-binding protein 3 (from UniProt Q96I24 1-572)” the binding was “binds”.
For “Heterogeneous nuclear ribonucleoprotein Q (from UniProt O60506 1-623)”, the binding was “binds”.
In the case of “Nucleolar RNA helicase 2 (from UniProt Q9NR30 1-783)”, the binding was “binds”.
With “Sequestosome-1 (from UniProt Q13501 1-440)” the binding was “binds”.
“Heat shock protein beta-1 (from UniProt P04792 1-205)” was tested, and the binding was “binds”.
With “Keratin, type II cytoskeletal 6C (from UniProt P48668 1-564)” the binding was “binds”.
In the case of “E3 ubiquitin/ISG15 ligase TRIM25 (from UniProt Q14258 1-630)”, the binding was “binds”.
In the case of “MKI67 FHA domain-interacting nucleolar phosphoprotein (from UniProt Q9BYG3 1-293)”, the binding was “binds”.
“TAR DNA-binding protein 43 (from UniProt Q13148 1-414)” was tested, and the binding was “binds”.
With “Regulator of differentiation 1 (from UniProt O95758 1-552)” the binding was “binds”.
With “Double-stranded RNA-binding protein Staufen homolog 1 (from UniProt O95793 1-577)” the binding was “binds”.
For “Voltage-dependent anion-selective channel protein 1 (from UniProt P21796 1-283)”, the binding was “binds”.
With “Nucleolar GTP-binding protein 2 (from UniProt Q13823 1-731)” the binding was “binds”.
For “Protein MAK16 homolog (from UniProt Q9BXY0 1-300)”, the binding was “binds”.
For “Fragile X mental retardation syndrome-related protein 1 (from UniProt P51114 1-621)”, the binding was “binds”.
With “Heterogeneous nuclear ribonucleoprotein A/B (from UniProt Q99729 1-332)” the binding was “binds”.
With “Heterogeneous nuclear ribonucleoprotein H (from UniProt P31943 1-449)” the binding was “binds”.
“ATP-dependent RNA helicase DDX54 (from UniProt Q8TDD1 1-881)” was tested, and the binding was “binds”.
With “Interleukin enhancer-binding factor 2 (from UniProt Q12905 1-390)” the binding was “binds”.
“Zinc finger RNA-binding protein (from UniProt Q96KR1 1-1074)” was tested, and the binding was “binds”.
“Centromere protein V (from UniProt Q7Z7K6 1-275)” was tested, and the binding was “binds”.
With “PR8 nucleoprotein (NP) (from UniProt P03466 1-498)” the binding was “binds”.
For “Heat shock-related 70 kDa protein 2 (from UniProt P54652 1-639)”, the binding was “binds”.
“Histone H1.5 (from UniProt P16401 1-226)” was tested, and the binding was “binds”.
For “Probable ATP-dependent RNA helicase DDX17 (from UniProt Q92841 1-729)”, the binding was “binds”.
In the case of “Putative pre-mRNA-splicing factor ATP-dependent RNA helicase DHX15 (from UniProt O43143 1-795)”, the binding was “binds”.
In the case of “Ribosome biogenesis protein BOP1 (from UniProt Q14137 1-746)”, the binding was “binds”.
In the case of “Ribosome biogenesis protein BMS1 homolog (from UniProt Q14692 1-1282)”, the binding was “binds”.
